Laboratory results: article doi:10.1101/2020.02.12.946293
Results are given in words; binding and its absence hold for the method and conditions named. Some entries that bind do so weakly or less than the wild type.

Chains of the proteins cited; added tags and fusions are not shown. Lines headed by an entry give the natural chain unless they say otherwise; changes in a name come on top.
UniProt P40965: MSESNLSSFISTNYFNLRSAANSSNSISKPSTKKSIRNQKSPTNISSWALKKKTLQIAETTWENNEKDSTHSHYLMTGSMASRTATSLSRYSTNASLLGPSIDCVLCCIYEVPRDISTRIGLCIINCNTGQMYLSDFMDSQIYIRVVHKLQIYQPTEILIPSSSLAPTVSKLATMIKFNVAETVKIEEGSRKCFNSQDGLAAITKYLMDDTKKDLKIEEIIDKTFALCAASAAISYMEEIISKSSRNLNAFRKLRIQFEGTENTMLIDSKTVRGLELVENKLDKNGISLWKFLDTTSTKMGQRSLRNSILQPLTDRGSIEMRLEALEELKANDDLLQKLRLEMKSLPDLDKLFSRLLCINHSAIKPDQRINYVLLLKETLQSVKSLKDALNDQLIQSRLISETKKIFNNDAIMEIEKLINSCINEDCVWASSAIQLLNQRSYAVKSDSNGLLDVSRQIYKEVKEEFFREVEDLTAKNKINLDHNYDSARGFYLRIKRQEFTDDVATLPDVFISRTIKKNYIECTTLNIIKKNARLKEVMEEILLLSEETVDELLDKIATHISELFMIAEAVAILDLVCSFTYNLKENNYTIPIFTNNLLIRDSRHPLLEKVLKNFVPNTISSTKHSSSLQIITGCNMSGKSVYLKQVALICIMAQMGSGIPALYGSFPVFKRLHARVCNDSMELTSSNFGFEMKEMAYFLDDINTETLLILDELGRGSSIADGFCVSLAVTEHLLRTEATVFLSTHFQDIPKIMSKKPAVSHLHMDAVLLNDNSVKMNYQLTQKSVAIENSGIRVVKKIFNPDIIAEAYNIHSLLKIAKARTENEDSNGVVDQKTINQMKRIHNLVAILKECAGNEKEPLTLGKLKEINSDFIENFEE
UniProt Q12175: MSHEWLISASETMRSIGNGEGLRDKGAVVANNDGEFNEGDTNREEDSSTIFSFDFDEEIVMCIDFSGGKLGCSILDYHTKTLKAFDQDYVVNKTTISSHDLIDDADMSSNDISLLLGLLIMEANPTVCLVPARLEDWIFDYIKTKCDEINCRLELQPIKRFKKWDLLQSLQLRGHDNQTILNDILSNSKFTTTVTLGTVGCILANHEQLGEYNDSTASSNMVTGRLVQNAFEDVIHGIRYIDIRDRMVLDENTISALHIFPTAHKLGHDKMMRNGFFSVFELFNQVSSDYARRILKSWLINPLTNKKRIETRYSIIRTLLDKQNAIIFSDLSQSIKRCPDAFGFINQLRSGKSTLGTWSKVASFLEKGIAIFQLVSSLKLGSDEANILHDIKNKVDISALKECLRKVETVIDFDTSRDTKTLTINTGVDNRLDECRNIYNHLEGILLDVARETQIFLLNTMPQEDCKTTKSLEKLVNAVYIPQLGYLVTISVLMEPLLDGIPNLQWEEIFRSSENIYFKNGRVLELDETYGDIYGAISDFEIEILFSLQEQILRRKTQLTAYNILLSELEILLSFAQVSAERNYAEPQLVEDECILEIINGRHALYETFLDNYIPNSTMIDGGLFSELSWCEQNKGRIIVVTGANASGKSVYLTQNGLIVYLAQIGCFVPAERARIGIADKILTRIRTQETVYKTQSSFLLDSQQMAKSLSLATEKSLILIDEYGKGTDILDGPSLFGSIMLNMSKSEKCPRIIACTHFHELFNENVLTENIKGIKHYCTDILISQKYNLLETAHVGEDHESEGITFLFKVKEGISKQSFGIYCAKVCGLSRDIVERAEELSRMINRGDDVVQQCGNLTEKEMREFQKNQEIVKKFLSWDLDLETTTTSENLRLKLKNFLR

Target: T1, yMlh1-yMlh3 (S. cerevisiae) (UniProt P38920+Q12083)
T1 sequence 1: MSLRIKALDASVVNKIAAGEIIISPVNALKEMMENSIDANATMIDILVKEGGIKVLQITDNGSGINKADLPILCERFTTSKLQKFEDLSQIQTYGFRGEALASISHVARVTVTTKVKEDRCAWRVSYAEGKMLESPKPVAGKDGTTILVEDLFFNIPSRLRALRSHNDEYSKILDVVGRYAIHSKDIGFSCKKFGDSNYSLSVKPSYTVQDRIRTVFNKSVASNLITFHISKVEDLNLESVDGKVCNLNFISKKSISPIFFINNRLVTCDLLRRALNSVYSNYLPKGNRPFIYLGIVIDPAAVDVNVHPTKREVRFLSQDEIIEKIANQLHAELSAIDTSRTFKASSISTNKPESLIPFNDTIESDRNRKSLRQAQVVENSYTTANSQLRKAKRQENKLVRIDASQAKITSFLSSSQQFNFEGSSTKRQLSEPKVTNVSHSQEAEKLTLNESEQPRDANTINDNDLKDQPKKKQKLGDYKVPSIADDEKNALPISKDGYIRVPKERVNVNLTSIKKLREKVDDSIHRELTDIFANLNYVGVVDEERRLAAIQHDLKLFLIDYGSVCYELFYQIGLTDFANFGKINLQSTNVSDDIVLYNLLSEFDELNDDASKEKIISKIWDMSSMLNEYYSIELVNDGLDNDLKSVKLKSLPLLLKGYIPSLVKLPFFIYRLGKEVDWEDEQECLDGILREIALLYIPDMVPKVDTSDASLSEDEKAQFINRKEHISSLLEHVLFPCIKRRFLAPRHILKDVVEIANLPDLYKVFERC
T1 sequence 2: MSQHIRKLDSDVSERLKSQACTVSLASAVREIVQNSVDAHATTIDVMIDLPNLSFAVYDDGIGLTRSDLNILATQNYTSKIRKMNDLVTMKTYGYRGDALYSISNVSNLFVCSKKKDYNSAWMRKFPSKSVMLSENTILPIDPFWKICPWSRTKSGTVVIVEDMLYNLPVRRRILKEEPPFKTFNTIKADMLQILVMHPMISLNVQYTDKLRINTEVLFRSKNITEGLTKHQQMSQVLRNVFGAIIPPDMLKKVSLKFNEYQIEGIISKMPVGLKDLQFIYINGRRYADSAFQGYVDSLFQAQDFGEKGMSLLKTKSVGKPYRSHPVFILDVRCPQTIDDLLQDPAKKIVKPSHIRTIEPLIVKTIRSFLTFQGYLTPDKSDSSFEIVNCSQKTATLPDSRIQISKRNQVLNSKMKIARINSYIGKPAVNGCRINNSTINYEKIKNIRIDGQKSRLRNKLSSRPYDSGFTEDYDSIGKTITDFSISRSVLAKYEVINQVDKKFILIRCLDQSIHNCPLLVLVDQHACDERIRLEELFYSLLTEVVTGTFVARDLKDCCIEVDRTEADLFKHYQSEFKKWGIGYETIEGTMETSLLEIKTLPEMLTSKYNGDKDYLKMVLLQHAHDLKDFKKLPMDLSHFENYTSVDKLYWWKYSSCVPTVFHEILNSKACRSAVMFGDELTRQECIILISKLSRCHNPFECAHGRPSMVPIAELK
Test: native gel or EMSA

binding: binds
Substance: yMsh4-yMsh5 (from UniProt P40965;Q12175) (complex)
